Data reported in paper PMC7819943, “Rice protein-binding microarrays: a tool to detect cis-acting elements near promoter regions in rice”.
The other results are listed elsewhere or left out.

Amino acid sequences for entries named in this document (tags omitted).
UniProt Q0JBA9, entry or part of it: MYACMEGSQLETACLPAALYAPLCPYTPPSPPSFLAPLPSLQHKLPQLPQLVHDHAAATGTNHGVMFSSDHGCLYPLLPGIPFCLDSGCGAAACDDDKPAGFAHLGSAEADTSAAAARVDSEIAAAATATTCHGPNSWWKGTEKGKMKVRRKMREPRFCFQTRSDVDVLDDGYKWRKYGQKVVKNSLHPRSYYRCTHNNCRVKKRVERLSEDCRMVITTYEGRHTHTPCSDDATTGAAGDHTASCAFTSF

Each sequence was assayed against OsWRKY34 (Oryza sativa, UniProt Q0JBA9 1-250) (assay: protein-binding microarray (RPBM); PBS, 2% BSA, 51.3 ng/ul salmon testes DNA, 50 uM zinc acetate, 200 nM TF, 25 C, 1 h; high values mean tight binding). Conditions: protein: recombinant; tags: N-terminal polyhistidine and DsRed monomer fusion (pET32a); label: CyDye5-dUTP incorporated in the synthesized complementary strand; 3' TTTTT single-stranded linker to array surface; dsDNA, one strand shown.
In short: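 Per-feature fluorescence intensity (arbitrary units), read on an Axon 4000B scanner, is the binding signal. Transcription factors carrying an N-terminal polyhistidine tag and DsRed fusion were expressed in E. coli BL21-CodonPlus and purified on Ni–NTA. A custom Agilent array, made double-stranded by primer extension with Cy5-dUTP and blocked with 2% BSA, was incubated with 200 nM protein in PBS, 2% BSA, salmon testes DNA and 50 µM zinc acetate at 25 °C for 1 h and then washed.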

Row | Sequence | binding signal
1 | ATAGCAACCGACCTAGCCCGGCCCCACACGCTTCGCATCCCGGAGTCACCTAGTGCAG | 8320 fluorescence intensity (a.u.)
2 | TCAGAATCATGTTTTTTTTATTCCTCCGTTTTTTTTATTCCGGAGTCACCTAGTGCAG | 8070 fluorescence intensity (a.u.)
3 | TTTCTAGGTTTAAACTTGGATATATCTTGTGTTCATATTCCGGAGTCACCTAGTGCAG | 8890 fluorescence intensity (a.u.)
4 | GGTTGGGTTGGGCCATGTAAAATAAGGGTTACGATGGGCTCGGAGTCACCTAGTGCAG | 9670 fluorescence intensity (a.u.)
5 | AGTTGTATTTGTAATGTGAACTACCCTCTCCGTCCCAAAACGGAGTCACCTAGTGCAG | 8110 fluorescence intensity (a.u.)
6 | GTTCGATATCCCCGTGCAGAGGCAAGGCGGCGGGTCTCCCCGGAGTCACCTAGTGCAG | 9860 fluorescence intensity (a.u.)
7 | GCTGCGTCGCTCGATTTGTTTGTCGTACCGTTGTCGCGATCGGAGTCACCTAGTGCAG | 8820 fluorescence intensity (a.u.)
8 | TTTTGTATTTCCTCTCGTAGACTTTCTTTGGTCTTACATTCGGAGTCACCTAGTGCAG | 8880 fluorescence intensity (a.u.)
9 | CACTTTGGGTCCCTCTATTTTTCGCCCATTCCGATTTTCACGGAGTCACCTAGTGCAG | 10300 fluorescence intensity (a.u.)
10 | CACCACCACCCACCTCGTCTTCTTCTTCGCTAAGCCTAAACGGAGTCACCTAGTGCAG | 8160 fluorescence intensity (a.u.)
11 | ACAATATTATATCCAACGTCAACACCAGACTATATCAATGCGGAGTCACCTAGTGCAG | 9010 fluorescence intensity (a.u.)
12 | ACTCTCTCGTTCTCTCTCCCAGGCTCCCAGCCGGCGTTGCCGGAGTCACCTAGTGCAG | 12100 fluorescence intensity (a.u.)
13 | TAAATTACACGTTCAACTTTATTGTTTTTACTATTTTATACGGAGTCACCTAGTGCAG | 9420 fluorescence intensity (a.u.)
14 | GTTTACTCTTTATTCCCATGTTCTGGATTTTTTTTCACCTCGGAGTCACCTAGTGCAG | 13300 fluorescence intensity (a.u.)
15 | GGCCAGAACGAATCGTATCCTTTTTTTTTTCTGTTCCTTTCGGAGTCACCTAGTGCAG | 9160 fluorescence intensity (a.u.)
16 | GCTGGCCGGCCTCCCCGCTCGCCGCCGCCGCCGCCGCATGCGGAGTCACCTAGTGCAG | 8180 fluorescence intensity (a.u.)
17 | TTTTCCTCCGTTCTCCGCCCACGCGCCGTCATCGCTGCCCCGGAGTCACCTAGTGCAG | 9020 fluorescence intensity (a.u.)
18 | CCGTACTCCGCCCTCGCTTCCCTATTCCCTTTTTCCTTTTCGGAGTCACCTAGTGCAG | 9810 fluorescence intensity (a.u.)
19 | CACCACCACCCGGGGCCCATGCTGTACGCGGCGGCGCCCGCGGAGTCACCTAGTGCAG | 9440 fluorescence intensity (a.u.)
20 | ATATTGTTTTTTTTTCTCTCATCTTGCATACGCATGCATGCGGAGTCACCTAGTGCAG | 11200 fluorescence intensity (a.u.)
21 | ACGCTATTTAAACTGCTAAACGCTACTCTTTTTGTCCCATCGGAGTCACCTAGTGCAG | 9020 fluorescence intensity (a.u.)
22 | ATGGTGTTCCCGCTCCCGCGCCCGCCGTGGCGCCGGCGCCCGGAGTCACCTAGTGCAG | 9180 fluorescence intensity (a.u.)
23 | CCGCCACTCTTTTTTTTTTTCTCCCGCGAAAATCACGTGACGGAGTCACCTAGTGCAG | 11000 fluorescence intensity (a.u.)
24 | CCCGCGCCGCCACCCCACCCCACCCCACCCCACGCCGTCTCGGAGTCACCTAGTGCAG | 9140 fluorescence intensity (a.u.)
25 | AATAATGGCTTTCGTTGTCCTTGTCACATCATAAACTTCTCGGAGTCACCTAGTGCAG | 9720 fluorescence intensity (a.u.)
26 | GGTTGGGTGGAGGGTATTACAGTCTTTTTGCTTTTGTATTCGGAGTCACCTAGTGCAG | 36600 fluorescence intensity (a.u.)
27 | TAATTACAACTCTTCGTTTTTTTATATTTGCATAAATTTTCGGAGTCACCTAGTGCAG | 10100 fluorescence intensity (a.u.)

Row | Sequence | binding signal
28 | TGGTTATGGTATGGTATGTTCCTGCAGTTATGCCGATCCCCGGAGTCACCTAGTGCAG | 8620 fluorescence intensity (a.u.)
29 | AGGCTCTTAATTCGTATTTTCCCATTCACCTAACAGAAATCGGAGTCACCTAGTGCAG | 8740 fluorescence intensity (a.u.)
30 | AATAAGACGAACGGTCAAATATTTTTTAAAAAGTCAACGGCGGAGTCACCTAGTGCAG | 10300 fluorescence intensity (a.u.)
31 | CAGTTTTTACTTCAGTACGTCATTATCTAAGTTTCTTTACCGGAGTCACCTAGTGCAG | 8240 fluorescence intensity (a.u.)
32 | CAGCCTTCCTGTCCACCTGCTGCTGCACGCCGCCGCCGAGCGGAGTCACCTAGTGCAG | 8130 fluorescence intensity (a.u.)
33 | CTCATCGCCTGTCCTATATTGCCACCGCCGTTGTCATGTGCGGAGTCACCTAGTGCAG | 8590 fluorescence intensity (a.u.)
34 | ATAATTTTTTTCCTTTCCATATGCTCGCTCCAAACCACTCCGGAGTCACCTAGTGCAG | 11500 fluorescence intensity (a.u.)
35 | AGCAAGCTACCACCGCAGCCCAGCTCGAGGCCACCACCACCGGAGTCACCTAGTGCAG | 8130 fluorescence intensity (a.u.)
36 | GTAGGGGTCTTATTTTCGCAGGCGGACATGACACTTAGAGCGGAGTCACCTAGTGCAG | 8620 fluorescence intensity (a.u.)
37 | TGCGTACATGTGAGAGGATTCGGTTGACCTCCATTTCACGCGGAGTCACCTAGTGCAG | 8570 fluorescence intensity (a.u.)
38 | ACCTGGTTCATTGCTTTACCGATGCTTCCTTATAAAATTACGGAGTCACCTAGTGCAG | 9110 fluorescence intensity (a.u.)
39 | GGTGACAATCTTTTTTTTCTTCTTCTAAATGTTACAGTACCGGAGTCACCTAGTGCAG | 8350 fluorescence intensity (a.u.)
40 | TAATGTATTCCGGCAAATGAATATGTTGTTTGACTTTTTTCGGAGTCACCTAGTGCAG | 10300 fluorescence intensity (a.u.)
41 | TCTTCTCACTCTAATCAAATCTCTCTCTCTCTCTCTCTCTCGGAGTCACCTAGTGCAG | 8280 fluorescence intensity (a.u.)
42 | AACTTAAAGCAGTTTGACTTTGACTAAAGTCAAAACGTCTCGGAGTCACCTAGTGCAG | 8510 fluorescence intensity (a.u.)
43 | CCACGCCGCCCCGCCCGCCGCCGCGACCACCCGTTCCACCCGGAGTCACCTAGTGCAG | 8630 fluorescence intensity (a.u.)
44 | GCCAGTGTCTTTCTCTACAAGAAATTCCTCGGTTTCCACGCGGAGTCACCTAGTGCAG | 9520 fluorescence intensity (a.u.)
45 | ACCATCCATCCAGCCAGCCAGCCAGCCACATCATATGTCCCGGAGTCACCTAGTGCAG | 9280 fluorescence intensity (a.u.)
46 | TATCCGTATCCAACGTTTGACCGTTCATCTTATCTGAAAACGGAGTCACCTAGTGCAG | 8840 fluorescence intensity (a.u.)
47 | CTCTCCTCTCGTCCCGCGCCTCGGCCGCCGTCTGATTCCGCGGAGTCACCTAGTGCAG | 9840 fluorescence intensity (a.u.)
48 | TATCGGAGTAGGCCTACTGGGCCAATTGGGTGGGCTTTTTCGGAGTCACCTAGTGCAG | 10300 fluorescence intensity (a.u.)
49 | ACCATCTCTAGAACTTTCCATCTCGCCTCCGCCTCCGCCTCGGAGTCACCTAGTGCAG | 9460 fluorescence intensity (a.u.)
50 | GACATCCACCCCAGCGATGCTGCTCTACGCCGCCCTGTTCCGGAGTCACCTAGTGCAG | 12400 fluorescence intensity (a.u.)
51 | CTAGCTGTTCCCAAGTCCTCCGTCTCGTTTTCCGCGCAACCGGAGTCACCTAGTGCAG | 12100 fluorescence intensity (a.u.)
52 | AACCAATTCGCTTCAACTTTAGTCACTTGATTTGCTTTATCGGAGTCACCTAGTGCAG | 9570 fluorescence intensity (a.u.)
53 | TTCTTCACCGTTTTGTTTTCTCTGCGCCTCAAATTTCCTTCGGAGTCACCTAGTGCAG | 12000 fluorescence intensity (a.u.)
54 | TCGGTATATCTTATGTGGTTGCCTATCCCTGCTGGTTTTACGGAGTCACCTAGTGCAG | 10000 fluorescence intensity (a.u.)

A section from further up, for reference:
Row | Sequence | binding signal
36 | GTAGGGGTCTTATTTTCGCAGGCGGACATGACACTTAGAGCGGAGTCACCTAGTGCAG | 8620 fluorescence intensity (a.u.)
37 | TGCGTACATGTGAGAGGATTCGGTTGACCTCCATTTCACGCGGAGTCACCTAGTGCAG | 8570 fluorescence intensity (a.u.)
38 | ACCTGGTTCATTGCTTTACCGATGCTTCCTTATAAAATTACGGAGTCACCTAGTGCAG | 9110 fluorescence intensity (a.u.)
39 | GGTGACAATCTTTTTTTTCTTCTTCTAAATGTTACAGTACCGGAGTCACCTAGTGCAG | 8350 fluorescence intensity (a.u.)
40 | TAATGTATTCCGGCAAATGAATATGTTGTTTGACTTTTTTCGGAGTCACCTAGTGCAG | 10300 fluorescence intensity (a.u.)
41 | TCTTCTCACTCTAATCAAATCTCTCTCTCTCTCTCTCTCTCGGAGTCACCTAGTGCAG | 8280 fluorescence intensity (a.u.)
42 | AACTTAAAGCAGTTTGACTTTGACTAAAGTCAAAACGTCTCGGAGTCACCTAGTGCAG | 8510 fluorescence intensity (a.u.)
43 | CCACGCCGCCCCGCCCGCCGCCGCGACCACCCGTTCCACCCGGAGTCACCTAGTGCAG | 8630 fluorescence intensity (a.u.)
44 | GCCAGTGTCTTTCTCTACAAGAAATTCCTCGGTTTCCACGCGGAGTCACCTAGTGCAG | 9520 fluorescence intensity (a.u.)
45 | ACCATCCATCCAGCCAGCCAGCCAGCCACATCATATGTCCCGGAGTCACCTAGTGCAG | 9280 fluorescence intensity (a.u.)
46 | TATCCGTATCCAACGTTTGACCGTTCATCTTATCTGAAAACGGAGTCACCTAGTGCAG | 8840 fluorescence intensity (a.u.)
47 | CTCTCCTCTCGTCCCGCGCCTCGGCCGCCGTCTGATTCCGCGGAGTCACCTAGTGCAG | 9840 fluorescence intensity (a.u.)
